The results in this text go back to paper doi:10.1101/2024.11.13.623393.

Positions count from the first letter of the chain named. These are yes or no findings as the source states them, for the method shown. Binding seen in cells or lysates may run through a third protein. Some results given as binding are weak or reduced against the parent protein; the word gives no strength. Tags and fused reporters may be left off the sequences shown.

The experiment deals with T1, Nse3-3xSTII (S. cerevisiae) (UniProt Q05541).
T1 sequence: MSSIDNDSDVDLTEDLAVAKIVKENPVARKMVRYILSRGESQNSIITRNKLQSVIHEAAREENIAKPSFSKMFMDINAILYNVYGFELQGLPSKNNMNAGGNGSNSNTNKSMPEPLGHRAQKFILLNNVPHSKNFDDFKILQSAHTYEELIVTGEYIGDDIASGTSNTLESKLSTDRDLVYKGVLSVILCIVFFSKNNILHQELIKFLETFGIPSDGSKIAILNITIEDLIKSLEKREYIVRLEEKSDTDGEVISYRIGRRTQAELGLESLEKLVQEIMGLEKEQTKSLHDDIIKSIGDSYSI
The experiment in a line: co-IP.

B1: Smc5-13xMYC (protein, UniProt Q08204 1-1093)
chain: MTSLIDLGRYVERTHHGEDTEPRSKRVKIAKPDLSSFQPGSIIKIRLQDFVTYTLTEFNLSPSLNMIIGPNGSGKSTFVCAVCLGLAGKPEYIGRSKKVEDFIKNGQDVSKIEITLKNSPNVTDIEYIDARDETIKITRIITRSKRRSDYLINDYQVSESVVKTLVAQLNIQLDNLCQFLSQERVEEFARLKSVKLLVETIRSIDASLLDVLDELRELQGNEQSLQKDLDFKKAKIVHLRQESDKLRKSVESLRDFQNKKGEIELHSQLLPYVKVKDHKEKLNIYKEEYERAKANLRAILKDKKPFANTKKTLENQVEELTEKCSLKTDEFLKAKEKINEIFEKLNTIRDEVIKKKNQNEYYRGRTKKLQATIISTKEDFLRSQEILAQTHLPEKSVFEDIDIKRKEIINKEGEIRDLISEIDAKANAINHEMRSIQRQAESKTKSLTTTDKIGILNQDQDLKEVRDAVLMVREHPEMKDKILEPPIMTVSAINAQFAAYLAQCVDYNTSKALTVVDSDSYKLFANPILDKFKVNLRELSSADTTPPVPAETVRDLGFEGYLSDFITGDKRVMKMLCQTSKIHTIPVSRRELTPAQIKKLITPRPNGKILFKRIIHGNRLVDIKQSAYGSKQVFPTDVSIKQTNFYQGSIMSNEQKIRIENEIINLKNEYNDRKSTLDALSNQKSGYRHELSELASKNDDINREAHQLNEIRKKYTMRKSTIETLREKLDQLKREARKDVSQKIKDIDDQIQQLLLKQRHLLSKMASSMKSLKNCQKELISTQILQFEAQNMDVSMNDVIGFFNEREADLKSQYEDKKKFVKEMRDTPEFQSWMREIRSYDQDTKEKLNKVAEKYEEEGNFNLSFVQDVLDKLESEIAMVNHDESAVTILDQVTAELRELEHTVPQQSKDLETIKAKLKEDHAVLEPKLDDIVSKISARFARLFNNVGSAGAVRLEKPKDYAEWKIEIMVKFRDNAPLKKLDSHTQSGGERAVSTVLYMIALQEFTSAPFRVVDEINQGMDSRNERIVHKAMVENACAENTSQYFLITPKLLTGLHYHEKMRIHCVMAGSWIPNPSEDPKMIHFGETSNYSFD
As for B1, the binding result is “binds”.

B2: Smc5-2KE-13xMYC (protein, UniProt Q08204 1-1093)
chain: B1 chain with K624E, K631E
Turning to B2, the binding result is “binds”.
